Source: PubChem BioAssay AID588590 (National Center for Advancing Translational Sciences (NCATS), 2011)
Values joined by “and” are separate entries in the source; they are usually repeats but may differ in a detail not shown here. Equal values may be shown once. About 4,000 (1%) of roughly 390,000 compounds were called active. This list was built around the results that the source calls inconclusive (neither active nor inactive); the mix of calls is not that of the screen. The call rests on the fitted dose curve; in most records, active means well fitted inhibition curve with a large enough effect; inconclusive means small, poorly fitted or top-dose-only effect, or another doubt; inactive means no such curve, though single readings can be large or run the other way. Potencies beside an inconclusive call are fits to weak or partial responses and may not hold up.

By UniProt entry, the sequences of proteins in these tests, tags left out. Where a name states a change or a piece, a line headed by the entry shows the natural chain unless it says otherwise.
UniProt Q9UNA4: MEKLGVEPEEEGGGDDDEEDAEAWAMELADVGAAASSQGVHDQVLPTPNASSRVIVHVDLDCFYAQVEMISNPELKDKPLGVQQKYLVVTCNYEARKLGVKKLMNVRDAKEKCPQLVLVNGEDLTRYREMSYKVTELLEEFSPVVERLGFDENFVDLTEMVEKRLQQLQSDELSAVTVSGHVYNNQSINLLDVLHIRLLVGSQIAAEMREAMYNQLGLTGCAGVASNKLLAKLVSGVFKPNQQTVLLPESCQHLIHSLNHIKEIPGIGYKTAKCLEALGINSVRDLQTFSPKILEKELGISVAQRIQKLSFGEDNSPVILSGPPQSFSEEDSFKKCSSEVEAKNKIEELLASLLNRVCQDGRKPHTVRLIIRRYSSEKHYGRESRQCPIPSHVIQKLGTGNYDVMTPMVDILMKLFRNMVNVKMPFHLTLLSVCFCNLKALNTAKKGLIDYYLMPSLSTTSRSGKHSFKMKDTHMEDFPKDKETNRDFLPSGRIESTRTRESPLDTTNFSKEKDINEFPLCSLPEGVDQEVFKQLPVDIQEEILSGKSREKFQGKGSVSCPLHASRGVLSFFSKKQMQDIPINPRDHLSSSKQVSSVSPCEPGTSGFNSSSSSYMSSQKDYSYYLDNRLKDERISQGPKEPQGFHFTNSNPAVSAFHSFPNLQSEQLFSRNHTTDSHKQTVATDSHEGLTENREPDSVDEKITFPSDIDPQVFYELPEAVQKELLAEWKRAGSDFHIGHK

Molecular target: DNA polymerase iota (Homo sapiens) (UniProt Q9UNA4)
Test: qHTS for Inhibitors of Polymerase Iota
Conditions: Pol iota fluorescent replication assay, 10 min; series mostly up to 115 µM
Outline: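 Fluorescent replication assay read twice, at 0 min and 10 min after adding 50 nM (final) substrate. Enzyme (10 nM) and compounds were first incubated 15 min at room temperature; enzyme-free buffer wells were negative controls.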
Potency means the concentration at half of the fitted maximal effect.

SMILES	Potency
CC(C)(C)C(=O)C1=C(O)C(=O)N(Cc2ccccc2)C1c1ccccc1Cl (configuration not stated)	inconclusive: 11.2 µM [inhibitor, partial curve, poor fit]
S=c1nc2c(n[nH]1)c1ccccc1n2CCc1ccccc1	inconclusive: 11.2 µM [inhibitor, partial curve, poor fit]
Cc1ccc(OCc2ccc([N+](=O)[O-])cc2)c([N+](=O)[O-])n1	inconclusive: 56.2 µM [inhibitor, partial curve, poor fit]
Cc1nc(S/C(C(=O)O)=C2/C(=O)Nc3ccccc32)n[nH]1	inconclusive: 14.1 µM [inhibitor, partial curve, poor fit]
CSc1cccc(NC(=O)CN(C)S(=O)(=O)c2ccccc2)c1	inconclusive: 63.1 µM [inhibitor, partial curve, poor fit]
Cc1ccc(NC(=O)CSc2nc(O)cc(=O)n2C)cc1	inconclusive: 7.94 µM [inhibitor, full curve, poor fit]
COC(=O)CSCc1nc2ccccc2[nH]c1=O	inconclusive: 11.2 µM [inhibitor, partial curve, poor fit]
C/C(CC(=O)N1CCN(C=O)CC1)=N\NC(=O)c1cc2ccccc2cc1O	inconclusive: 50.1 µM [inhibitor, partial curve, poor fit]
CCOC(=O)C1CCCN(Cc2cn3c(-c4cccc(Br)c4)nnc3s2)C1 (configuration not stated)	inactive
Cc1ccc[n+](CC(=O)Nc2ccc(C)c(C)c2)c1	inactive
COc1ccc(Nc2cc(Cl)ccc2C(=O)O)cn1	inconclusive: 39.8 µM [inhibitor, single point]
Cc1cccc(OCC(=O)Nc2nnc(S(=O)(=O)N3CCc4ccccc43)s2)c1	inconclusive: 39.8 µM [inhibitor, partial curve, poor fit]
Cc1ccc(NC(=O)c2ccccc2Br)c(C(=O)c2ccccc2)c1	inconclusive: 89.1 µM [inhibitor, single point]
CC(NC(=O)Cn1c(NCCO)nc2ccccc21)C1CC2CCC1C2 (configuration not stated)	inconclusive: 31.6 µM [inhibitor, partial curve, poor fit]
COc1cc(/C=C2\SC(=O)NC2=O)ccc1Oc1ccc([N+](=O)[O-])cc1[N+](=O)[O-]	inconclusive: 25.1 µM [inhibitor, full curve]
CC(C)OC(=O)CC(=O)CSc1nc2c(c(-c3cccs3)c1C#N)CCC2	inconclusive: 15.8 µM [inhibitor, partial curve, poor fit]
O=C1c2cccnc2C(=O)N1c1cccc([N+](=O)[O-])c1	inconclusive: 20 µM [inhibitor, single point]
CN(CCO)c1cc(N2CCCCC2)c2nonc2c1[N+](=O)[O-]	inconclusive: 17.8 µM [inhibitor, single point]
CCOc1ccc2nc(/N=C/c3nc(-c4ccc(Br)cc4)oc3O)sc2c1	inactive
O=C(Oc1ccc(/C=N/NC(=O)c2ccccc2O)cc1)c1ccccc1	inconclusive: 89.1 µM [inhibitor, partial curve, poor fit]
O=C1c2cc(O)cc(O)c2C(=O)c2c1cc(O)c([C@@H](CO)CCO)c2O	inconclusive: 35.5 µM [inhibitor, partial curve, poor fit]

15 compounds out of the list, ordered by length of the SMILES, low to high:
SMILES	Potency
COC(=O)CSCc1nc2ccccc2[nH]c1=O	inconclusive: 11.2 µM [inhibitor, partial curve, poor fit]
Cc1ccc[n+](CC(=O)Nc2ccc(C)c(C)c2)c1	inactive
S=c1nc2c(n[nH]1)c1ccccc1n2CCc1ccccc1	inconclusive: 11.2 µM [inhibitor, partial curve, poor fit]
CSc1cccc(NC(=O)CN(C)S(=O)(=O)c2ccccc2)c1	inconclusive: 63.1 µM [inhibitor, partial curve, poor fit]
CC(NC(=O)Cn1c(NCCO)nc2ccccc21)C1CC2CCC1C2 (configuration not stated)	inconclusive: 31.6 µM [inhibitor, partial curve, poor fit]
CN(CCO)c1cc(N2CCCCC2)c2nonc2c1[N+](=O)[O-]	inconclusive: 17.8 µM [inhibitor, single point]
Cc1nc(S/C(C(=O)O)=C2/C(=O)Nc3ccccc32)n[nH]1	inconclusive: 14.1 µM [inhibitor, partial curve, poor fit]
O=C(Oc1ccc(/C=N/NC(=O)c2ccccc2O)cc1)c1ccccc1	inconclusive: 89.1 µM [inhibitor, partial curve, poor fit]
CCOc1ccc2nc(/N=C/c3nc(-c4ccc(Br)cc4)oc3O)sc2c1	inactive
CC(C)OC(=O)CC(=O)CSc1nc2c(c(-c3cccs3)c1C#N)CCC2	inconclusive: 15.8 µM [inhibitor, partial curve, poor fit]
C/C(CC(=O)N1CCN(C=O)CC1)=N\NC(=O)c1cc2ccccc2cc1O	inconclusive: 50.1 µM [inhibitor, partial curve, poor fit]
Cc1ccc(OCc2ccc([N+](=O)[O-])cc2)c([N+](=O)[O-])n1	inconclusive: 56.2 µM [inhibitor, partial curve, poor fit]
Cc1cccc(OCC(=O)Nc2nnc(S(=O)(=O)N3CCc4ccccc43)s2)c1	inconclusive: 39.8 µM [inhibitor, partial curve, poor fit]
O=C1c2cc(O)cc(O)c2C(=O)c2c1cc(O)c([C@@H](CO)CCO)c2O	inconclusive: 35.5 µM [inhibitor, partial curve, poor fit]
COc1cc(/C=C2\SC(=O)NC2=O)ccc1Oc1ccc([N+](=O)[O-])cc1[N+](=O)[O-]	inconclusive: 25.1 µM [inhibitor, full curve]

Following part.

SMILES	Potency
Cc1ccc(-n2c(SCc3ccccc3)nc3c([nH]c4ccccc43)c2=O)cc1	inactive
O=C(Cc1ccc(-n2cccc2)cc1)N1CCc2ccccc21	inconclusive: 39.8 µM [inhibitor, single point]
O=C(CSc1nc(-c2ccccc2)c(-c2ccccc2)[nH]1)NCCN1C(=O)CSC1=O	inconclusive: 0.794 µM [inhibitor, full curve, poor fit]
O=c1c(O)cccc2cc(O)c(O)c(O)c12	inconclusive: 0.282 µM [inhibitor, full curve, poor fit]
O=C(Nc1ccccc1)C1=C(c2ccccc2)S(=O)(=O)CCS1(=O)=O	inconclusive: 25.1 µM [inhibitor, partial curve, poor fit]
Cc1cccc(-n2nc(C)c(C(=O)Nc3cc(C)ccc3C)c2-n2cccc2)c1	inactive
O=C(NNc1ccccc1)c1sc2ccccc2c1Cl	inconclusive: 56.2 µM [inhibitor, partial curve, poor fit]
COc1ccccc1C(=O)Oc1ccc(C(c2c(C)[nH][nH]c2=O)c2c(C)[nH][nH]c2=O)cc1	inconclusive: 35.5 µM [inhibitor, single point]
CSc1ccc(C2Nc3cccc4cccc(c34)N2)cc1	inconclusive: 35.5 µM [inhibitor, partial curve, poor fit]
O=C1c2cccc3cccc(c23)C(=O)N1c1ccc(O)cc1	inconclusive: 70.8 µM [inhibitor, single point]
COC(=O)c1cc(-c2ccc(C)cc2)c2c(=O)n(C)c(=O)n(C)c2n1	inactive
CCN(C(=O)CN1CCN(c2ccccc2O)CC1)c1c(N)n(Cc2ccccc2)c(=O)[nH]c1=O	inconclusive: 12.6 µM [inhibitor, full curve, poor fit]
C/C(=N/NC(=O)CNC(=O)c1cccnc1)c1ccc(Cl)c(Cl)c1	inactive
O=c1ccn([C@@H]2O[C@H](CNCC3=Cc4cc(O)ccc4OC3)[C@@H](O)[C@H]2O)c(=O)[nH]1	inconclusive: 12.6 µM [inhibitor, full curve, poor fit]
Cc1ccc(S(=O)(=O)NC(=O)NN2CC3CCCC3C2)cc1 (configuration not stated)	inactive
CSc1nn(Cc2ccc(C)cc2)c(N)c1S(=O)(=O)c1ccccc1	inconclusive: 89.1 µM [inhibitor, single point]
COc1cc(/C=C2/C(=N)N3N=C(CC(=O)N4CCOCC4)SC3=NC2=O)ccc1OCc1ccccc1F	inconclusive: 56.2 µM [inhibitor, partial curve, poor fit]
Cc1csc2nc(COC(=O)c3ccccc3NC(=O)c3ccc(C(C)(C)C)cc3)cc(=O)n12	inactive
CCOc1ccc(-c2n[nH]c(=S)n2/N=C/c2cc3c(cc2[N+](=O)[O-])OCO3)cc1	inconclusive: 12.6 µM [inhibitor, partial curve, poor fit]
O=C(CSc1nc(O)c(Cc2ccccc2)c(=O)[nH]1)Nc1nnc(SCc2ccccc2)s1	inconclusive: 28.2 µM [inhibitor, full curve]
O=C(NNC(=O)c1ccccc1C(=O)O)c1cc2ccccc2o1	inconclusive: 31.6 µM [inhibitor, partial curve, poor fit]

SMILES	Potency
CCn1c(COc2ccccc2C)nnc1SCC(=O)CC(=O)Nc1ccccc1OC	inconclusive: 12.6 µM [inhibitor, full curve]
CCN(CC)CCn1c(NCc2cccc(OC)c2)nc2ccccc21	inconclusive: 25.1 µM [inhibitor, single point]
O=C(Nc1cccc(C(F)(F)F)c1)/C(=C/c1ccco1)NC(=O)c1cccs1	inactive
Cc1cc(C)cc(NC(=O)CCCc2nc(-c3ccco3)no2)c1	inactive
C/C(N)=C(/C#N)C(=O)CSc1nnc(Nc2c(C)cccc2C)s1	inconclusive: 17.8 µM [inhibitor, full curve, poor fit] and inconclusive: 20 µM [inhibitor, full curve]
Cn1c(CC(=O)NNC(=O)c2ccccc2F)nc2ccccc21	active: 70.8 µM
COc1cc(NC(=O)CCc2c(C)nn(-c3ccc(N4CCCCC4)nn3)c2C)cc(OC)c1OC	inactive
O=C(NCC12CC3CC(C1)CC(CNC(=O)N1CCCC1)(C3)C2)N1CCCC1	inconclusive: 112 µM [inhibitor, single point]
CCCC(=O)Nc1ccc(C(=O)N/N=C/c2ccc([N+](=O)[O-])o2)cc1	inconclusive: 44.7 µM [inhibitor, partial curve, poor fit]
O=C(O)CCNC1C=CS(=O)(=O)C1 (configuration not stated)	inconclusive: 44.7 µM [inhibitor, partial curve, poor fit]
CCOC(=O)c1cc(OC(=O)c2ccccc2Cl)n(-c2ccccc2)n1	inconclusive: 89.1 µM [inhibitor, single point]
CCc1ccc(NC(=O)CS(=O)CC(=O)Nc2ccc(F)cc2F)cc1 (configuration not stated)	inconclusive: 112 µM [inhibitor, partial curve, poor fit]
COc1ccc(NCC(=O)Nc2ccc(Cl)cc2C)c(OC)c1	inconclusive: 11.2 µM [inhibitor, partial curve, poor fit]
Cc1nn2c(=O)cc(COC(=O)c3ccccc3NC(=O)COc3ccccc3C)nc2s1	inactive
COc1ccc(NC(=S)NNc2ccc(S(=O)(=O)Nc3ccccc3C(=O)O)cc2[N+](=O)[O-])cc1	inconclusive: 22.4 µM [inhibitor, full curve]
N#CC1=C2SCN(C3CCCCC3)CN2C(=O)CC1c1ccc(Cl)cc1 (configuration not stated)	inconclusive: 20 µM [inhibitor, full curve]
CS(=O)(=O)N(CCc1ccccc1)CC(=O)Nc1ccc2c(c1)OCO2	inconclusive: 39.8 µM [inhibitor, single point]
Nc1nc2ccc(S(=O)(=O)N3CCCCC3)cc2s1	inconclusive: 11.2 µM [inhibitor, partial curve]
CCN(CC)S(=O)(=O)c1ccc(N2CCOCC2)c(NC(=S)NC(=O)c2ccco2)c1	inconclusive: 25.1 µM [inhibitor, partial curve, poor fit]
Cc1ccc(CNC(=O)Cn2c(=O)n(-c3ccc(C)cc3)c(=O)c3c2c2cc(C)ccc2n3C)cc1	inconclusive: 100 µM [inhibitor, partial curve, poor fit]
